Test: general procedure: Fmoc solid-phase peptide synthesis; Fmoc-Rink Amide MBHA resin (CEM, 0.56 mmol/g); DIC/Oxyma (4/8/4 equiv. Fmoc-AA-OH/DIC/Oxyma); cyclization DIC/HOBt
Details: late stage modification step

Row | Substance | step yield
1 | cyclo[Phe-Tyr-Lys(iPr)-D-Arg-2Nal-D-Asn-D-Glu]-Lys(iPr)-Lys(CysAcid2-DOTA-Ga) | 86% yield
2 | cyclo[Phe-Tyr-Lys(iPr)-D-Arg-2Nal-D-Asn-D-Gu]-Lys(iPr)-Lys(CysAcid-DOTA) | 74% yield
3 | cyclo[Lys(CysAcid-DOTA)-Tyr-Lys(iPr)-D-Arg-2Nal-D-Asn-D-Glu]-Lys(iPr) | 80% yield
4 | cyclo[Lys(D-Arg-DOTA-Ga)-Tyr-Lys(iPr)-D-Arg-2Nal-D-Ala-D-Glu]-Lys(iPr) | 73% yield
5 | cyclo[Lys(CysAcid-DOTA)-(4-NH2)Phe-Lys(iPr)-D-Arg-2Nal-Gly-D-Glu]-Lys(iPr) | 77% yield
6 | cyclo[Lys(CysAcid-DOTA-Ga)-(3-I)Tyr-Lys(iPr)-D-Arg-2Nal-D-Ala-D-Glu]-Lys(iPr) | 97% yield
7 | cyclo[Lys(CysAcid-DOTA-Ga)-Tyr-Lys(iPr)-D-Arg-2Nal-D-Ala-D-Glu]-Lys(iPr) | 71% yield
